Source: PMC10378293
Results are given in words; binding and its absence hold for the method and conditions named. In cells and extracts the contact can be indirect. Some binding calls cover weakened binding; strength is not graded here. Tags and fused reporters may be left off the sequences shown.

T1: full-size Xmas-2 N-terminally fused with three FLAG epitopes (D. melanogaster) (UniProt Q9U3V9)
T1 sequence: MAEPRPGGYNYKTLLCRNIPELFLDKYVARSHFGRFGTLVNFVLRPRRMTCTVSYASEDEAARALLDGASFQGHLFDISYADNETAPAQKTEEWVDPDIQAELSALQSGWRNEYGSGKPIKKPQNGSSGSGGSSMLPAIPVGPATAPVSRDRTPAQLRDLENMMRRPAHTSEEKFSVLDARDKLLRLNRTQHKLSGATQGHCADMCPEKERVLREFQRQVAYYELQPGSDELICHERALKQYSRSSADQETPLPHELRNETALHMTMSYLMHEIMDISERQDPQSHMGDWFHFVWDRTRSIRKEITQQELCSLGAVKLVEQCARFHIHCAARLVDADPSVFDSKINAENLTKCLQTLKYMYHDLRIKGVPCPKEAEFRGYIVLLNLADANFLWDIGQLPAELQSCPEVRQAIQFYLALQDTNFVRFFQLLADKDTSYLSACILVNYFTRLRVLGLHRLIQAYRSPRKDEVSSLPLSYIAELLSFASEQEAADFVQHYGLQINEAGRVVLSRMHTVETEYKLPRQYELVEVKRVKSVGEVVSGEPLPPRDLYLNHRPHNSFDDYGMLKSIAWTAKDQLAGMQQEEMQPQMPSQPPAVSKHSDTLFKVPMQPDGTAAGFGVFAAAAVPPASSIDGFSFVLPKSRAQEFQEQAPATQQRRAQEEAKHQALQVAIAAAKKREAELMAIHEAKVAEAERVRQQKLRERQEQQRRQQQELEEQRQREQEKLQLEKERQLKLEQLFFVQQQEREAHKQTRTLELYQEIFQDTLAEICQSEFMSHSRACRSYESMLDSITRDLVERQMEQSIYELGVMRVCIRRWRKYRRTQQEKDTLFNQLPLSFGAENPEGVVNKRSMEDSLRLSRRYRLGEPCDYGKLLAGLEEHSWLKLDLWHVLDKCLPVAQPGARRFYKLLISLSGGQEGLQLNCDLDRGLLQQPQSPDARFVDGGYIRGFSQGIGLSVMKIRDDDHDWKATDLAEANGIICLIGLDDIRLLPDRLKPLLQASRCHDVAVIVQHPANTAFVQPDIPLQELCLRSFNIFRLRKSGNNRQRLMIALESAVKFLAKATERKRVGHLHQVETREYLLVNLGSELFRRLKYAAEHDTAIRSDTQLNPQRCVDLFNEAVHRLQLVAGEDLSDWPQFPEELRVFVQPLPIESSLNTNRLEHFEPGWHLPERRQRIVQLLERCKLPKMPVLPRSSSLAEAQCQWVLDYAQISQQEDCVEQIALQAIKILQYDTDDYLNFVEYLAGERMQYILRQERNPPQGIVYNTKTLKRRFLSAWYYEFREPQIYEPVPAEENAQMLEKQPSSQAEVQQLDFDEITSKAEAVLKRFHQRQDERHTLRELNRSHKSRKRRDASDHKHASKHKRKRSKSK


Target: T1, full-size Xmas-2 N-terminally fused with three FLAG epitopes (D. melanogaster)
Test: co-IP; tagged PCID2 or PCID2^1-360 co-expressed with tagged Xmas-2 in S2 cells; lysate (0.4 M NaCl, 0.5% NP-40 buffer) pretreated with DNase I and RNase; precipitated with antibodies against the FLAG or HA epitope

binding | Binder
no binding | PCID2^1–360 fused with the HA epitope (domain or fragment, UniProt Q9VTL1 1-360) MFGTVNNYLSGVLHAAQDLDGESLATYLSLRDVHVQNHNLYIAQPEKLVDRFLKPPLDEVVSAHLKVLYHLAQEPPGYMEAYTQQSAACGAVVRLLQQLKDENWCLPLMYRVCLDLRYLAQACEKHCQGFTPGHVLEKAADCIMACFRVCAADGRASEEDTKRLGMMNLVNQLFKIYFRINKLHLCKPLIRAIDNCIFKDSFPLPEQITYKYFVGRRAMFDSNYQAAVQYLSYAFSNCPDRFASNKRLILIYLVPVKMLLGYLPSKSLLQRYDLLLFLDLAMAMKAGNVNRFDEIVRDQELVLIRSGIYLLVEKLKFLVYRNLFKKVFVIRKSHQLDMGDFLSALHFVGLTDVSLDETHC
binds | full-size PCID2 fused with the HA epitope (protein, UniProt Q9VTL1 1-395) MFGTVNNYLSGVLHAAQDLDGESLATYLSLRDVHVQNHNLYIAQPEKLVDRFLKPPLDEVVSAHLKVLYHLAQEPPGYMEAYTQQSAACGAVVRLLQQLKDENWCLPLMYRVCLDLRYLAQACEKHCQGFTPGHVLEKAADCIMACFRVCAADGRASEEDTKRLGMMNLVNQLFKIYFRINKLHLCKPLIRAIDNCIFKDSFPLPEQITYKYFVGRRAMFDSNYQAAVQYLSYAFSNCPDRFASNKRLILIYLVPVKMLLGYLPSKSLLQRYDLLLFLDLAMAMKAGNVNRFDEIVRDQELVLIRSGIYLLVEKLKFLVYRNLFKKVFVIRKSHQLDMGDFLSALHFVGLTDVSLDETHCIVANLIYDGKIKGYISHAHNKLVVSKQNPFPSVSL
